35 compounds from the supplement of paper PMC10735217 can be followed below.

Structures are written as SMILES. Structures can show the parent of a compound that is named as a salt. The list shows a part of the results. This data set is noisy: repeats of one test often differ as much as different tests do.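 Human kidney-derived cells stably carry a construct in which eight TEAD-binding elements drive luciferase, measured by luminescence in a drug-repurposing library screen. A hit is any compound whose signal exceeds the plate mean by more than five robust Z scores.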

The subject of this assay is HEK293A TEAD-LUC reporter. Briefly: TEAD-luciferase reporter activity (YAP activation), robust Z score vs plate; higher = stronger YAP/TEAD activation. The conditions noted are these: 24 h. On the technique in general: A reporter such as luciferase makes a cellular process visible.

`O=C(NCCO)c1nn(-c2ccccc2F)c2c1CCC2`: the TEAD-luciferase reporter activity is inactive: -0.881 (compound concentration: 200 nM), inactive: -0.042 (compound concentration: 2 uM) and inactive: 0.573 (compound concentration: 10 uM).
Taken in the same sequence, the figures for `CCC(c1ccc(O)cc1)C(CC)C(C)c1ccc(O)cc1` (centres undefined) were inactive: 1.42, inactive: 2.92 and inactive: 1.72.
Turning to `CC(C)[C@H](NC(=O)[C@H](CCCCN)NC(=O)[C@H](CC(=O)O)NC(=O)[C@@H](N)CCCNC(=N)N)C(=O)N[C@@H](Cc1ccc(O)cc1)C(=O)N[C@@H](CCCNC(=N)N)C(=O)O` [Imunofan], the TEAD-luciferase reporter activity was inactive: -1.27 (compound concentration: 200 nM), inactive: 0.34 (compound concentration: 2 uM) and inactive: -1.93 (compound concentration: 10 uM).
Taken in the same sequence, the figures for `CC[C@H](C)[C@@H]([C@@H](CC(=O)N1CCC[C@H]1[C@H](OC)[C@@H](C)C(=O)NCCc1ccccc1)OC)N(C)C(=O)[C@@H](NC(=O)[C@H](C(C)C)N(C)C)C(C)C` [soblidotin] were inactive: 3.61, inactive: 2.85 and inactive: 2.26.
Take `O=C(Oc1ccccc1)c1ccccc1O`: the TEAD-luciferase reporter activity (compound concentration: 2 uM) was inactive: 0.0836.
For `O=C(Oc1ccccc1)c1ccccc1O` [Phenyl salicylate], the TEAD-luciferase reporter activity reads like this: (compound concentration: 200 nM) inactive: -0.0239; (compound concentration: 10 uM) inactive: -0.904.
As for `CCOCCOC(=O)c1nc2cc(Cl)ccc2o1`, the TEAD-luciferase reporter activity was inactive: 0.614 (compound concentration: 200 nM), inactive: 0.231 (compound concentration: 2 uM) and inactive: -0.567 (compound concentration: 10 uM).
Taken in the same sequence, the figures for `O=C(Nc1cnccc1Cl)N1CCN(Cc2ccc3c(c2)OC(F)(F)O3)CC1` were inactive: 1.2, inactive: -0.366 and inactive: 0.459.
On to `c1ccc([C@H]2CN3CCSC3=N2)cc1` [levamisole], for which the TEAD-luciferase reporter activity (compound concentration: 2 uM) was inactive: 1.36.
Take `c1ccc([C@H]2CN3CCSC3=N2)cc1` [Levamisole HCl]: the TEAD-luciferase reporter activity is, setting by setting: (compound concentration: 200 nM) inactive: -1.53; (compound concentration: 10 uM) inactive: -1.13.
On to `COC(=O)CSc1nc(-c2ccccc2)c(-c2ccccc2)o1`, for which the TEAD-luciferase reporter activity (compound concentration: 200 nM) was inactive: -1.44, the TEAD-luciferase reporter activity (compound concentration: 2 uM) is inactive: -0.637 and the TEAD-luciferase reporter activity (compound concentration: 10 uM) is inactive: -0.334.
On the same counts, the results for `CC(=O)[C@]1(O)Cc2c(O)c3c(c(O)c2[C@@H](OC2C[C@H](N)[C@H](O)[C@H](C)O2)C1)C(=O)c1ccccc1C3=O` (some centres undefined) [idarubicin] are inactive: 1.8, inactive: 2 and inactive: 2.49.
On the same counts, the results for `CCN(CCCc1ccccc1)CCCc1ccccc1` [Alverine citrate] are inactive: 0.295, inactive: -0.402 and inactive: 0.45.
Taken in the same sequence, the figures for `CC[C@H](C)[C@H](NC(=O)[C@H](CC(N)=O)NC(=O)[C@H](CC(N)=O)NC(=O)[C@H](CCCNC(=N)N)NC(=O)[C@H](CC(N)=O)NC(=O)[C@H](CCCNC(=N)N)NC(=O)[C@@H](N)CCCCN)C(=O)N[C@@H](C)C(=O)O` were inactive: -0.653, inactive: -0.353 and inactive: -0.089.
With `O=C(O)CC[C@H](NC(=O)[C@H]1CC[C@H](Oc2ccc(C(=O)c3ccccc3)c(Cl)c2Cl)C1)C(=O)O`, the TEAD-luciferase reporter activity (compound concentration: 200 nM) is inactive: -0.0195 and the TEAD-luciferase reporter activity (compound concentration: 10 uM) is inactive: 3.94.
Turning to `C[C@@](Cc1ccc(O)c(O)c1)(NN)C(=O)O` [Carbidopa], the TEAD-luciferase reporter activity (compound concentration: 200 nM) is inactive: -0.3, the TEAD-luciferase reporter activity (compound concentration: 2 uM) is inactive: -1.26 and the TEAD-luciferase reporter activity (compound concentration: 10 uM) is inactive: 0.69.
On the same counts, the results for `CCN(CC)C(=O)Nc1ccc(OCC(O)CNC(C)(C)C)c(C(C)=O)c1` (centres undefined) [celiprolol] are inactive: 0.876, inactive: -2.15 and inactive: 2.74.
On to `COCC1=C(C(=O)O)N2C(=O)[C@@H](NC(=O)/C(=N\OC)c3csc(N)n3)[C@H]2SC1` [Cefpodoxime], for which, under “compound concentration: 2 uM”, the TEAD-luciferase reporter activity is inactive: -0.945.
In the case of `COCC1=C(C(=O)O)N2C(=O)[C@@H](NC(=O)/C(=N\OC)c3csc(N)n3)[C@H]2SC1`, the TEAD-luciferase reporter activity is, setting by setting: (compound concentration: 200 nM) inactive: -0.603; (compound concentration: 10 uM) inactive: -0.903.
In the case of `CCOC(=O)c1c(CSc2ccccc2)n(C)c2cc(Br)c(O)c(CN(C)C)c12` [Arbidol], the TEAD-luciferase reporter activity was inactive: 0.421 (compound concentration: 200 nM), inactive: 2.6 (compound concentration: 2 uM) and inactive: 2.34 (compound concentration: 10 uM).
For `Cc1cccc(C)c1NNC(=N)N(C)C`, the TEAD-luciferase reporter activity (compound concentration: 200 nM) is inactive: 0.266, the TEAD-luciferase reporter activity (compound concentration: 2 uM) is inactive: -2.33 and the TEAD-luciferase reporter activity (compound concentration: 10 uM) is inactive: -0.0378.
Taken in the same sequence, the figures for `FC(F)(F)c1ccc(CNc2ccc(Cc3c[nH]c4ncccc34)cn2)cc1` were inactive: -0.506, inactive: 0.184 and inactive: 0.457.
Taken in the same sequence, the figures for `COc1cccc([C@H]2O[C@H](CC(=O)N3CCC(CC(=O)O)CC3)C(=O)N(CC(C)(C)COC(C)=O)c3ccc(Cl)cc32)c1OC` [Lapaquistat acetate] were inactive: 1.73, inactive: -1.79 and inactive: 3.
On the same counts, the results for `CC(C)Cc1ccc(C(C)C(=O)NO)cc1` (centres undefined) [Ibuproxam] are inactive: -0.528, inactive: 0.929 and active: 5.22.
As to `CCN(CC)CCOc1cccc(CNc2ncc3cc(-c4ccccc4)c(=O)n(C)c3n2)c1`, the TEAD-luciferase reporter activity was inactive: -0.695 (compound concentration: 200 nM), inactive: 0.267 (compound concentration: 2 uM) and inactive: 0.97 (compound concentration: 10 uM).
Taken in the same sequence, the figures for `N[C@@H]1c2cccnc2[C@H](OC(=O)N2CCC(n3c(=O)[nH]c4ncccc43)CC2)CC[C@H]1c1cccc(F)c1F` [Rimegepant] were inactive: 2.26, inactive: 0.198 and inactive: -0.147.
Consider `Cc1cccc(Cl)c1NC(=O)CCN1CCCC2CCCC21` (centres undefined), for which the TEAD-luciferase reporter activity (compound concentration: 200 nM) is inactive: -0.899, the TEAD-luciferase reporter activity (compound concentration: 2 uM) is inactive: 0.57 and the TEAD-luciferase reporter activity (compound concentration: 10 uM) was inactive: 0.000409.
As to `O=C1CN2Cc3c(ccc(Cl)c3Cl)N=C2N1` [anagrelide CR], the TEAD-luciferase reporter activity (compound concentration: 2 uM) was inactive: -2.19.
With `O=C1CN2Cc3c(ccc(Cl)c3Cl)N=C2N1` [anagrelide hydrochloride], the TEAD-luciferase reporter activity runs as follows: (compound concentration: 200 nM) inactive: -0.653; (compound concentration: 10 uM) inactive: 0.962.
In the case of `CSCCNc1nc(SCCC(F)(F)F)nc2c1ncn2[C@@H]1O[C@H](COP(=O)(O)OP(=O)(O)C(Cl)(Cl)P(=O)(O)O)[C@@H](O)[C@H]1O` [Cangrelor], the TEAD-luciferase reporter activity (compound concentration: 200 nM) is inactive: -0.431, the TEAD-luciferase reporter activity (compound concentration: 2 uM) is inactive: -0.925 and the TEAD-luciferase reporter activity (compound concentration: 10 uM) is inactive: 2.47.
Taken in the same sequence, the figures for `O=C(c1cc[n+]([O-])cc1)N1CCC(=C2c3ccc(Cl)cc3CCc3cccnc32)CC1` were inactive: 0.395, inactive: 0.7 and inactive: -0.805.
As to `CCCCCCCCCCCCN` [dodecylamine, Cellegy], the TEAD-luciferase reporter activity by setting is: (compound concentration: 200 nM) inactive: -1.45; (compound concentration: 10 uM) inactive: 3.16.
Regarding `CCCCCCCCCCCCN` [dodecylamine], the TEAD-luciferase reporter activity (compound concentration: 2 uM) is inactive: -1.87.
Take `COc1ccc(S(N)(=O)=O)cc1C(=O)NC[C@H]1CCCN1CC1CC1`: the TEAD-luciferase reporter activity by setting is: (compound concentration: 200 nM) inactive: -0.605; (compound concentration: 2 uM) inactive: -1.24; (compound concentration: 10 uM) inactive: -0.114.
For `O=C(O)Cc1nn(Cc2ccc(Br)cc2F)c(=O)c2ccccc12` [Ponalrestat], the TEAD-luciferase reporter activity is, setting by setting: (compound concentration: 200 nM) inactive: -1.41; (compound concentration: 2 uM) inactive: -0.371; (compound concentration: 10 uM) active: 7.92.
